Experimental data: the supplement of paper PMC12067093, “Discovery and optimisation of a covalent ligand for TRIM25 and its application to targeted protein ubiquitination” (Chemical Science, 2025)
The list shows a part of the results.

The chains behind the UniProt entries cited, without tags or fusion partners. Where a name states a change or a piece, a line headed by the entry shows the natural chain unless it says otherwise.
UniProt Q86U44, whole entry, looked up: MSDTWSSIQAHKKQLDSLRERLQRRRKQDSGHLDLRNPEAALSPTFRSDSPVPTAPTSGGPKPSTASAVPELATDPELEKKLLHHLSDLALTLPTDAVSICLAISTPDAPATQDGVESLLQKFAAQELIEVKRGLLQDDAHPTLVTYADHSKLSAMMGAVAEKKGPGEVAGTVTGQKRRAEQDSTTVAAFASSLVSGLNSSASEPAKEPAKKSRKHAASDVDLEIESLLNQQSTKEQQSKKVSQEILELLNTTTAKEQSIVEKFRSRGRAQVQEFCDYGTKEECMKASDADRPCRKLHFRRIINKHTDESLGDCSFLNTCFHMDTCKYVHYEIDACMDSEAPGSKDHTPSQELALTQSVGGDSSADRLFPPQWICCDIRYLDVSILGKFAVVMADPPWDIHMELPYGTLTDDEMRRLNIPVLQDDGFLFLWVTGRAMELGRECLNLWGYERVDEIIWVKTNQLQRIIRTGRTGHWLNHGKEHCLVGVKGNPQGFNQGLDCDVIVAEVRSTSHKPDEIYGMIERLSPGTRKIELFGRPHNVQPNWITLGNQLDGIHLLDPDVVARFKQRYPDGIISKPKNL
UniProt P49736, whole entry, looked up: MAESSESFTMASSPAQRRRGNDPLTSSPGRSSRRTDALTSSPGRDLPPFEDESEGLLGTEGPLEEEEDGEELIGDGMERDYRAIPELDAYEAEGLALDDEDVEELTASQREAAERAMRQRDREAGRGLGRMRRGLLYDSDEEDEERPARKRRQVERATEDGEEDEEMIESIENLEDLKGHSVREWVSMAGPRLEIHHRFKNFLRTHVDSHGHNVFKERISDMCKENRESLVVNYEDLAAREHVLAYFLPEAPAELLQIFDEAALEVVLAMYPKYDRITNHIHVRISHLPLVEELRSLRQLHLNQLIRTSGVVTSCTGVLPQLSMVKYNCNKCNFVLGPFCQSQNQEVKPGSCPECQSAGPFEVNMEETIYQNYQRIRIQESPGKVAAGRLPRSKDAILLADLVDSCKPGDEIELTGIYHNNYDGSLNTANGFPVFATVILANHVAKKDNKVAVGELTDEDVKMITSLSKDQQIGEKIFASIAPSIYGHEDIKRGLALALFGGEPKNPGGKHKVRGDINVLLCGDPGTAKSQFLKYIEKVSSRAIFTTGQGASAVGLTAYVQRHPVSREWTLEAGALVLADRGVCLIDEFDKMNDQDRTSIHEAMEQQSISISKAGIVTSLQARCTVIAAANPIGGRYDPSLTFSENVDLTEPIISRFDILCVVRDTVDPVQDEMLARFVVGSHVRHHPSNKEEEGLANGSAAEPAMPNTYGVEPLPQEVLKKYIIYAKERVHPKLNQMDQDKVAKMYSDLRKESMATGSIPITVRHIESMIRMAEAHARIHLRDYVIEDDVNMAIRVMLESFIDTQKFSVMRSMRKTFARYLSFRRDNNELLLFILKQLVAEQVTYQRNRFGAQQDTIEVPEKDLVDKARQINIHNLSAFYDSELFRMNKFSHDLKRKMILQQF
UniProt Q9BTE3: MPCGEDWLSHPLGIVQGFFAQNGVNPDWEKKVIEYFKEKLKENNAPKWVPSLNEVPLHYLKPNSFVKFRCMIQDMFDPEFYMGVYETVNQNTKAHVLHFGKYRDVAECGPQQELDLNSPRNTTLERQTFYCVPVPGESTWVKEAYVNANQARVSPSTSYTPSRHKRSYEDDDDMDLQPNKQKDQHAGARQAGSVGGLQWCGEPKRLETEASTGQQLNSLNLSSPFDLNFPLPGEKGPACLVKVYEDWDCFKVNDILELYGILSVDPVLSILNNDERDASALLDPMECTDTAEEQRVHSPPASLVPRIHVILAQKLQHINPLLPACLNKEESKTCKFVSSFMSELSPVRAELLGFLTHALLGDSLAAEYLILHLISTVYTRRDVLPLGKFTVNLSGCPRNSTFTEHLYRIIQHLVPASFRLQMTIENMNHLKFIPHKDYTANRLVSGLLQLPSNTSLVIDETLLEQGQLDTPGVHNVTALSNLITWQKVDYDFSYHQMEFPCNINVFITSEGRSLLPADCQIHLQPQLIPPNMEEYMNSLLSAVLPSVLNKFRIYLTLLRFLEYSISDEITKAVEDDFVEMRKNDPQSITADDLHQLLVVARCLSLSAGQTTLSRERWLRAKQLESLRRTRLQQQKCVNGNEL
UniProt O43462: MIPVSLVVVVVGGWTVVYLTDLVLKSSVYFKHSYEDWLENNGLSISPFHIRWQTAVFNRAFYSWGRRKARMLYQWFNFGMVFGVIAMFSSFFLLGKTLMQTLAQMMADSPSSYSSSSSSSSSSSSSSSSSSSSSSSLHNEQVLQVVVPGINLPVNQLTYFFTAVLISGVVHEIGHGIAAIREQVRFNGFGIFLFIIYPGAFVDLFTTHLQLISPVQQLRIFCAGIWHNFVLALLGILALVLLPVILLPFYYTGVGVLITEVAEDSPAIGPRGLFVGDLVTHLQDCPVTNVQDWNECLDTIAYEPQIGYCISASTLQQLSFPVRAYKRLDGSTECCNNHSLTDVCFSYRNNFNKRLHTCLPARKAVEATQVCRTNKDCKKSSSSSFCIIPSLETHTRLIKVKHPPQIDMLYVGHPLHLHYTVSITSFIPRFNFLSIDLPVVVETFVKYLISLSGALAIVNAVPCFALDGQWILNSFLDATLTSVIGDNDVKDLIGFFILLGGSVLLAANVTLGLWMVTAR
UniProt Q8N635: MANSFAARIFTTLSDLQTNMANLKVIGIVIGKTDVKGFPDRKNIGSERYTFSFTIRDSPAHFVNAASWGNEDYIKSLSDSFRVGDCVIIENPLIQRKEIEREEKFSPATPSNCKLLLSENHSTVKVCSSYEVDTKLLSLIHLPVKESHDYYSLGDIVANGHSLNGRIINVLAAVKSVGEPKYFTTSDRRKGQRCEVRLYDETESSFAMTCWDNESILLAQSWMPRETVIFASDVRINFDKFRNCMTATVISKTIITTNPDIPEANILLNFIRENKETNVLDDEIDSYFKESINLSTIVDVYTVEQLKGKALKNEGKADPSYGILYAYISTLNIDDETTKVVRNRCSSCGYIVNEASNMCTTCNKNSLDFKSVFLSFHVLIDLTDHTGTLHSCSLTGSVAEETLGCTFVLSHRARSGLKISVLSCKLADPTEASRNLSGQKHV
UniProt Q7L2J0: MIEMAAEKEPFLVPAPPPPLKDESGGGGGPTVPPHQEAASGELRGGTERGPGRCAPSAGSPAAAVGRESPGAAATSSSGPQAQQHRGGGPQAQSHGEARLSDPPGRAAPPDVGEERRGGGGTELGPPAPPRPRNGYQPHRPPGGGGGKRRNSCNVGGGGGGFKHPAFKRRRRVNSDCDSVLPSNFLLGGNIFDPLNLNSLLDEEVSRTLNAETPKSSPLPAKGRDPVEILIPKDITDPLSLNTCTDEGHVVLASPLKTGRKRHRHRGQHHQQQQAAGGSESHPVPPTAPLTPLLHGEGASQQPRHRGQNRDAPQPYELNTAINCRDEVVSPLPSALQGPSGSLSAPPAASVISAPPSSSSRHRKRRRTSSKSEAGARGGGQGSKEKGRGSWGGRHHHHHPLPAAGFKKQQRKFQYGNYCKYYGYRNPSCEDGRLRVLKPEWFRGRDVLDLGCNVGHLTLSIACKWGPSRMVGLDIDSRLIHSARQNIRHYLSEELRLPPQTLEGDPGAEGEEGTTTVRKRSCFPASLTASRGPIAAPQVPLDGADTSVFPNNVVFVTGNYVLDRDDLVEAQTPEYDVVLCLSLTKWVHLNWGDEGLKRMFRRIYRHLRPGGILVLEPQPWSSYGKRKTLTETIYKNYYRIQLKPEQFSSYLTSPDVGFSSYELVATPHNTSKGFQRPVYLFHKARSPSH
UniProt P25205: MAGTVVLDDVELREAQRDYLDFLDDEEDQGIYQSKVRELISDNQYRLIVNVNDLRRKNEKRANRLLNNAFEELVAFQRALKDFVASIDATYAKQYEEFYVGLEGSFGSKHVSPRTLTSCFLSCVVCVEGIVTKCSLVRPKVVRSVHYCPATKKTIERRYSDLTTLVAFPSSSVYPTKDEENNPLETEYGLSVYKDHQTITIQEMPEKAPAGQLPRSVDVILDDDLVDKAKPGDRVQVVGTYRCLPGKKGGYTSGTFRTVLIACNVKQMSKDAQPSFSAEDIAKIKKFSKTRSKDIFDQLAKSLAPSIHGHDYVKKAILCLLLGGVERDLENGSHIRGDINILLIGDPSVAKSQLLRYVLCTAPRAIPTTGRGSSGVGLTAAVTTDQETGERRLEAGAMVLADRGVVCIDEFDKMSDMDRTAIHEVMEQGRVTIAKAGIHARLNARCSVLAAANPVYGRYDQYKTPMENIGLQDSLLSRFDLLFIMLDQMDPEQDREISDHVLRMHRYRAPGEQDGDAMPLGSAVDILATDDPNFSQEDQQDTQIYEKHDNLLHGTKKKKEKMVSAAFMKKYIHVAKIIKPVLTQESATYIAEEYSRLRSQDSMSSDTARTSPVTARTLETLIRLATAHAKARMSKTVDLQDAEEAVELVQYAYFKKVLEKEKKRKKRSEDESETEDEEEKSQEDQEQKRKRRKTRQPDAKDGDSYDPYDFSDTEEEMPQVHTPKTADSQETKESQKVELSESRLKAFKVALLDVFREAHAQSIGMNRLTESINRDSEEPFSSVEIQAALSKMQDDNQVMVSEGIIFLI
UniProt P08582: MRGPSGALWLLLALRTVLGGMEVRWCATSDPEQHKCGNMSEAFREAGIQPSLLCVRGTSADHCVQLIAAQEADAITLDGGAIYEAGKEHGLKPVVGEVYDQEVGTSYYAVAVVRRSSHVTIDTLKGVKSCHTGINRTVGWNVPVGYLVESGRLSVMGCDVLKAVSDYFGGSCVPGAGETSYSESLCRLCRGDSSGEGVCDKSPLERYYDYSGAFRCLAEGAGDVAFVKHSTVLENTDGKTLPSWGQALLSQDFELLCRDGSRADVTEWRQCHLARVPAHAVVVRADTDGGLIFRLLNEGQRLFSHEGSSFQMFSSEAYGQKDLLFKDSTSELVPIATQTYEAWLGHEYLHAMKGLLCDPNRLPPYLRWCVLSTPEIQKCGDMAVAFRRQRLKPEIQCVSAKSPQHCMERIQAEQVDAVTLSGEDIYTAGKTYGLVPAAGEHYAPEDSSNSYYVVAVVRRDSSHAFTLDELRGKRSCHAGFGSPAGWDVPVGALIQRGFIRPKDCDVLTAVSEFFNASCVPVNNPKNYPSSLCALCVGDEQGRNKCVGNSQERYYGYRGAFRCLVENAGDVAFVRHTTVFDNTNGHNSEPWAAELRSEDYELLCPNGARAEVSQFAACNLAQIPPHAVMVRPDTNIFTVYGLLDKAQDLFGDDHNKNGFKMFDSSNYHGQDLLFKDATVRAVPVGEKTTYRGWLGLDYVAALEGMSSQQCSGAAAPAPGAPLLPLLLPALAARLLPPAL
UniProt Q07820, whole entry, looked up: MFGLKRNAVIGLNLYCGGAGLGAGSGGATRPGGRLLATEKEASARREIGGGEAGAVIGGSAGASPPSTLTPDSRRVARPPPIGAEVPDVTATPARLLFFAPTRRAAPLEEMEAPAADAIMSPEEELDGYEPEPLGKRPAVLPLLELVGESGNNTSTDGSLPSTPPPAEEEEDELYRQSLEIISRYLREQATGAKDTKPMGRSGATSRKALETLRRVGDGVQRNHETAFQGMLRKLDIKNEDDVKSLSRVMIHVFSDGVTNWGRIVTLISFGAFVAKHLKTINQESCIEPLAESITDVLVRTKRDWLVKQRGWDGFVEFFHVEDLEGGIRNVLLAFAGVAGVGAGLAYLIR
UniProt Q14566: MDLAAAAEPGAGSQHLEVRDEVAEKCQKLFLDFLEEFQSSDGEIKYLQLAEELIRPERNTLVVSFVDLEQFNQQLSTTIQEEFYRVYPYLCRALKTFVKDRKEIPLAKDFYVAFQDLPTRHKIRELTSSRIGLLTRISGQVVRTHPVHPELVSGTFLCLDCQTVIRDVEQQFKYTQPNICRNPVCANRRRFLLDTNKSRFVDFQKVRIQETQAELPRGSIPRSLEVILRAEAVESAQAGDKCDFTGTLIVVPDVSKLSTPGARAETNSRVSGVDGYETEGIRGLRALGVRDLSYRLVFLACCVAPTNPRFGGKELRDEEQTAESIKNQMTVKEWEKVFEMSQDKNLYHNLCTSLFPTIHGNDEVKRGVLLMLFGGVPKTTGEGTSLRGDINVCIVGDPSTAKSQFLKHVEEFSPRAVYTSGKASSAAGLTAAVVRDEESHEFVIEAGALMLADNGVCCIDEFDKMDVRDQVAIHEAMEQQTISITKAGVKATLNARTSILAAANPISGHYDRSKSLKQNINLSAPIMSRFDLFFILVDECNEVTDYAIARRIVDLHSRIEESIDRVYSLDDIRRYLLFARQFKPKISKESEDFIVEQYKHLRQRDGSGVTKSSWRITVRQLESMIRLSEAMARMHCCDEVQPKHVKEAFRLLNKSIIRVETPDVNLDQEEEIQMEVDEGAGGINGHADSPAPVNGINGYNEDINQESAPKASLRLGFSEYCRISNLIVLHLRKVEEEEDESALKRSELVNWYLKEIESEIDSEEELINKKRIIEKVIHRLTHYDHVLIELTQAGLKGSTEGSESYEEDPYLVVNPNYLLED

Compound: CC1Cc2ccccc2N1C(=O)C1CCCN(C1)C(=O)CCl (mixture of isomers) [TRIM25 ligand 11 (diastereomer mixture)]
Experiment: probe-labelled cysteine peptide fold change vs DMSO (competition) (log2 fold change); higher = less target engagement (more negative = stronger competition)
Conditions: THP-1, incubation time: 4 h
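Also: competitive chemoproteomic profiling in live THP-1 cells with an iodoacetamide desthiobiotin (IA-DTB) probe, comparing probe-labelled peptide intensities in compound-treated cells against DMSO-treated controls.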

Target | probe-labelled cysteine peptide fold change (10 µM) | probe-labelled cysteine peptide fold change (50 µM)
METTL3_Q86U44_336_YVHYEIDACMDSEAPGSK (UniProt Q86U44) | -0.032 | 0.0204
MCM7_P33993_566_YIAMCR (UniProt P33993) | -0.405 | 0.0286
MED27_Q6P2C8_309_TLEAFHDTCRQ (UniProt Q6P2C8) | 0.0636 | -0.0401
MDN1_Q9NU22_3308_LDNLTCHLLK (UniProt Q9NU22) | 0.0686 | 0.129
MED30_Q96HR3_34_EVNTASLCR (UniProt Q96HR3) | -0.0324 | -0.17
MCM3AP_O60318_1945_EQLQLSEATGTCLGER (UniProt O60318) | 0.0797 | 0.129
METTL7B_Q6UX53_79_VALLELGCGTGANFQFYPPGCR (UniProt Q6UX53) | -0.0975 | -0.168
MFSD2A_Q8NA29_44_KQQLSVCNK (UniProt Q8NA29) | -0.207 | -0.294
MEF2D_Q14814_41_AYELSVLCDCEIALIIFNHSNK (UniProt Q14814) | -0.0556 | 0.427
METTL2A_Q96IZ6_126_SEVPECR (UniProt Q96IZ6) | -0.0528 | -0.156
MED14_O60244_779_LYECVLEFAR (UniProt O60244) | 0.0771 | 0.172
MCCC1_Q96RQ3_600_CSVNGVASK (UniProt Q96RQ3) | 0.0764 | 0.152
METTL3_Q86U44_326_HTDESLGDCSFLNTCFHMDTCK (UniProt Q86U44) | 0.159 | 0.0527
MDN1_Q9NU22_4604_HLFFSQSCSLLVR (UniProt Q9NU22) | 0.142 | 0.423
MGAT2_Q10469_210_LGCINAEYPDSFGHYR (UniProt Q10469) | 0.0504 | 0.0641
METAP1_P53582_194+202_SCCTSVNEVICHGIPDR (UniProt P53582) | 0.285 | 0.221
MFF_Q9GZY8_209_VCPPHMLPEDGANLSSAR (UniProt Q9GZY8) | -0.0143 | -0.255
MEFV_O15553_670_TAWILGACK (UniProt O15553) | -0.0661 | 0.00852
ME2_P23368_190_LCLYTACAGIRPDR (UniProt P23368) | -0.0206 | 0.152
METAP1_P53582_202_SCCTSVNEVICHGIPDR (UniProt P53582) | 0.0679 | -0.0135
MDN1_Q9NU22_1394_ALEFGEPVLLVGDTGCGK (UniProt Q9NU22) | -0.0161 | 0.145
MDN1_Q9NU22_2816_LVVECFSQLK (UniProt Q9NU22) | 0.101 | 0.0652

Target | probe-labelled cysteine peptide fold change (10 µM) | probe-labelled cysteine peptide fold change (50 µM)
MDN1_Q9NU22_2784_EVQTVSEHIQNCLGSQTGGFAGIK (UniProt Q9NU22) | -0.0547 | 0.134
MDN1_Q9NU22_521_HHSWSDSSVGCEQAPEEVSEAR (UniProt Q9NU22) | 0.399 | -0.413
MCM2_P49736_522_GDINVLLCGDPGTAK (UniProt P49736) | 0.0421 | -0.0432
MBTD1_Q05BQ5_288_VSESMQYPFKPCMR (UniProt Q05BQ5) | -0.00839 | 0.0202
MCCC2_Q9HCC0_392_KGTHFVQLCCQR (UniProt Q9HCC0) | -0.0222 | -0.0984
MCMBP_Q9BTE3_636_CVNGNEL (UniProt Q9BTE3) | -0.0361 | -0.134
MCTS1_Q9ULC4_14_ENVSNCIQLK (UniProt Q9ULC4) | -0.0863 | -0.0885
METAP2_P50579_121_VQTDPPSVPICDLYPNGVFPK (UniProt P50579) | 0.0815 | -0.0604
METTL18_O95568_48_CSAEQFDLPQDHLWEHK (UniProt O95568) | -0.285 | 
MBTPS2_O43462_386_SSSSSFCIIPSLETHTR (UniProt O43462) | -0.0619 | 
MEIOB_Q8N635_424_ISVLSCK (UniProt Q8N635) | 0.0105 | 0.134
MEPCE_Q7L2J0_244_DITDPLSLNTCTDEGHVVLASPLK (UniProt Q7L2J0) | -0.113 | -0.0443
MCM3_P25205_123_TLTSCFLSCVVCVEGIVTK (UniProt P25205) | -0.216 | -0.195
MCM5_P33992_197_KCNTDQAGRPK (UniProt P33992) | -0.16 | -0.194
MCCC2_Q9HCC0_267_AATGEEVSAEDLGGADLHCRK (UniProt Q9HCC0) | -0.538 | -0.417
MELTF_P08582-2_256_SEEEEGECPAHEEAR (UniProt P08582) | 0.191 | 0.0921
MCL1_Q07820_286_TINQESCIEPLAESITDVLVR (UniProt Q07820) | -0.36 | -0.583
MCM2_P49736_223_ISDMCK (UniProt P49736) | -0.114 | -0.146
MED24_O75448_816_LAVWCALSSYSSHK (UniProt O75448) | -0.195 | -0.162
MDN1_Q9NU22_3985_KFEAVLSEPCR (UniProt Q9NU22) | -0.0833 | -0.136
MCM6_Q14566_636_MHCCDEVQPK (UniProt Q14566) | 0.0235 | 0.0411
MDC1_Q14676_128_LRDQELILFADLLCQYHR (UniProt Q14676) | -0.0684 | 0.148

Quoted from the listing (24 entries):
Target | probe-labelled cysteine peptide fold change (10 µM) | probe-labelled cysteine peptide fold change (50 µM)
ME2_P23368_190_LCLYTACAGIRPDR (UniProt P23368) | -0.0206 | 0.152
METAP1_P53582_202_SCCTSVNEVICHGIPDR (UniProt P53582) | 0.0679 | -0.0135
MDN1_Q9NU22_1394_ALEFGEPVLLVGDTGCGK (UniProt Q9NU22) | -0.0161 | 0.145
MDN1_Q9NU22_2816_LVVECFSQLK (UniProt Q9NU22) | 0.101 | 0.0652
MDN1_Q9NU22_2784_EVQTVSEHIQNCLGSQTGGFAGIK (UniProt Q9NU22) | -0.0547 | 0.134
MDN1_Q9NU22_521_HHSWSDSSVGCEQAPEEVSEAR (UniProt Q9NU22) | 0.399 | -0.413
MCM2_P49736_522_GDINVLLCGDPGTAK (UniProt P49736) | 0.0421 | -0.0432
MBTD1_Q05BQ5_288_VSESMQYPFKPCMR (UniProt Q05BQ5) | -0.00839 | 0.0202
MCCC2_Q9HCC0_392_KGTHFVQLCCQR (UniProt Q9HCC0) | -0.0222 | -0.0984
MCMBP_Q9BTE3_636_CVNGNEL (UniProt Q9BTE3) | -0.0361 | -0.134
MCTS1_Q9ULC4_14_ENVSNCIQLK (UniProt Q9ULC4) | -0.0863 | -0.0885
METAP2_P50579_121_VQTDPPSVPICDLYPNGVFPK (UniProt P50579) | 0.0815 | -0.0604
METTL18_O95568_48_CSAEQFDLPQDHLWEHK (UniProt O95568) | -0.285 | 
MBTPS2_O43462_386_SSSSSFCIIPSLETHTR (UniProt O43462) | -0.0619 | 
MEIOB_Q8N635_424_ISVLSCK (UniProt Q8N635) | 0.0105 | 0.134
MEPCE_Q7L2J0_244_DITDPLSLNTCTDEGHVVLASPLK (UniProt Q7L2J0) | -0.113 | -0.0443
MCM3_P25205_123_TLTSCFLSCVVCVEGIVTK (UniProt P25205) | -0.216 | -0.195
MCM5_P33992_197_KCNTDQAGRPK (UniProt P33992) | -0.16 | -0.194
MCCC2_Q9HCC0_267_AATGEEVSAEDLGGADLHCRK (UniProt Q9HCC0) | -0.538 | -0.417
MELTF_P08582-2_256_SEEEEGECPAHEEAR (UniProt P08582) | 0.191 | 0.0921
MCL1_Q07820_286_TINQESCIEPLAESITDVLVR (UniProt Q07820) | -0.36 | -0.583
MCM2_P49736_223_ISDMCK (UniProt P49736) | -0.114 | -0.146
MED24_O75448_816_LAVWCALSSYSSHK (UniProt O75448) | -0.195 | -0.162
MDN1_Q9NU22_3985_KFEAVLSEPCR (UniProt Q9NU22) | -0.0833 | -0.136

Further records.

Target | probe-labelled cysteine peptide fold change (10 µM) | probe-labelled cysteine peptide fold change (50 µM)
ME2_P23368_202_CLPVCIDVGTDNIALLK (UniProt P23368) | -0.0273 | 0.133
METTL26_Q96S19_162_CRNPEWGLR (UniProt Q96S19) | -0.0108 | 0.0473
MDN1_Q9NU22_3690_LLGSQLLACTLSHNTLFGEAPSDLMVKPDGPYDFYQHPNVPEAR (UniProt Q9NU22) | 0.00494 | 0.105
MDN1_Q9NU22_3195_ELLCQLLTSLHHFVGEGESK (UniProt Q9NU22) | 0.0155 | -0.348
MED21_Q13503_103_LEEENHEAATCLEDVVYR (UniProt Q13503) | 0.393 | 0.228
MCM6_Q14566_393_TTGEGTSLRGDINVCIVGDPSTAK (UniProt Q14566) | -0.118 | -0.0616
ME3_Q16798_145_FMPIVYTPTVGLACQHYGLTFR (UniProt Q16798) | 0.131 | 0.131
MEIOC_A2RUB1_875_CQDDRDVFALASAIK (UniProt A2RUB1) | -0.0609 | -0.188
METAP2_P50579_380_GVVHDDMECSHYMK (UniProt P50579) | -0.21 | -0.365
MELTF_P08582_603_SEDYELLCPNGAR (UniProt P08582) | 0.0149 | 0.0229
MCAT_Q8IVS2_120_TVHCQPAIFVASLAAVEK (UniProt Q8IVS2) | -0.234 | -0.236
MED13_Q9UHV7_681_NQCLSAIASDAEQEPK (UniProt Q9UHV7) | 0.292 | -0.0394
MEN1_O00255_334_TYYRDEHIYPYMYLAGYHCR (UniProt O00255) | -0.0493 | -0.182
MCM6_Q14566_158_THPVHPELVSGTFLCLDCQTVIR (UniProt Q14566) | 0.116 | 0.239
MDH2_P40926_285_SQETECTYFSTPLLLGK (UniProt P40926) | -0.0818 | -0.0395
MCM4_P33991_212_LGEINVIGEPFLNVNCEHIK (UniProt P33991) | -0.00252 | -0.103
METTL13_Q8N6R0_226_FRPVPGSALQIFELCAQEQR (UniProt Q8N6R0) | 0.025 | -0.292
MEMO1_Q9Y316_244_YHNTICGR (UniProt Q9Y316) | 0.221 | 0.136
MCM3_P25205_319_AILCLLLGGVERDLENGSHIR (UniProt P25205) | -0.129 | 0.0632
ME2_P23368_198_CLPVCIDVGTDNIALLK (UniProt P23368) | 0.165 | 0.162
MDN1_Q9NU22_882_LFACMNPATDVGKR (UniProt Q9NU22) | -0.0968 | -0.078
MCM6_Q14566_301_LVFLACCVAPTNPR (UniProt Q14566) | 0.0104 | 0.149

Target | probe-labelled cysteine peptide fold change (10 µM) | probe-labelled cysteine peptide fold change (50 µM)
MCTS1_Q9ULC4_144_QHALCVGVMK (UniProt Q9ULC4) | -0.044 | 0.0229
MCM5_P33992_355_KAIACLLFGGSR (UniProt P33992) | -0.476 | -0.468
MCM4_P33991_306_TSQLIPEMQEAFFQCQVCAHTTR (UniProt P33991) | 0.117 | -0.0512
MCM3_P25205_319_AILCLLLGGVER (UniProt P25205) | -0.0958 | 0.126
ME2_P23368_198+202_CLPVCIDVGTDNIALLK (UniProt P23368) | -0.102 | -0.0992
MCMBP_Q9BTE3_396_FTVNLSGCPR (UniProt Q9BTE3) | 0.0635 | 0.0908
MCM5_P33992_197_KCNTDQAGR (UniProt P33992) | -0.125 | -0.0339
MCCC2_Q9HCC0_391+392_KGTHFVQLCCQR (UniProt Q9HCC0) | 0.233 | 0.218
MCMBP_Q9BTE3_249_VYEDWDCFK (UniProt Q9BTE3) | 0.134 | -0.0358
MELTF_P08582_476_SCHAGFGSPAGWDVPVGALIQR (UniProt P08582) | 0.0511 | -0.0186
MBOAT7_Q96N66_310_NIDCYSTDFCVR (UniProt Q96N66) | 0.334 | 0.199
METAP1_P53582_194_SCCTSVNEVICHGIPDR (UniProt P53582) | 0.0662 | 0.0744
MDN1_Q9NU22_57_DCTVLVGR (UniProt Q9NU22) | -0.0529 | -0.031
MED23_Q9ULK4_712_ATHVTDFFTGSDSIQGTWCK (UniProt Q9ULK4) | 0.148 | 0.12
MCM5_P33992_197_CNTDQAGRPK (UniProt P33992) | 0.0518 | 0.0921
MCM7_P33993_566_RYIAMCR (UniProt P33993) | -0.0636 | -0.0165
MCM4_P33991_331_CHTTHSMALIHNR (UniProt P33991) | 0.0883 | -0.0841
MCM2_P49736_522_VRGDINVLLCGDPGTAK (UniProt P49736) | -0.0667 | -0.109
MELTF_P08582_545_CVGNSQER (UniProt P08582) | 0.206 | 0.242
